Laboratory results as given in patent US20250188136A1, “AV3 MUTANT POLYPEPTIDES FOR PEST CONTROL” (Vestaron Corporation, priority 2021, published 2025).
Some of these results come from one statement about several compounds together.

Tests used:
[1] = Stability of Av3b mutants in pH conditions; format: physicochemical; conditions: pH 3.1 to pH 9.6, room temperature
[2] = Thermo-stability at 54° C. in pH 4.0 solution; format: physicochemical; conditions: pH 4 NaOAc buffer
Experimental: A thermo-stability study was performed for Av3b, Av3bM24, Av3bM165, Av3bM103, and Av3bM170 in a pH 4.0 solution at 54° C. for 0, 3, 7, 10, 12, and 14 days, with a caffeine internal control to cancel variation from evaporation. Samples of 1 mL were prepared in 1.5 mL microtube with sodium acetate buffer (NaOAc) at pH 4.0, containing 0.1 μg/μL of peptide, and 0.025 μg/μL of caffeine. The samples were incubated at 54° C. in a dry mixer. At 0, 3, 7, 10, 12, and 14 days, 20 μL of each sample was analyzed via analytic rpHPLC system to evaluate peptide loss. Each sample contained a fixed amount caffeine, which was used to compensate the peptide HPLC UV absorbance peak change due to volume change by evaporation. FIG. 68.

Row | Sequence | time stable over a wide range of pH conditions [1] | time stable in solution at 54° C. [2]
1 | KSCCPCYWGGCPWGQNCYPEGCDGPK (Av3bM24; VARIANT (1)..(26) Recombinant variant of Anemonia viridis Av3 peptide) | at least 16 days | 
2 | KSCCPCYWGGCPWGQNCYPEGCGGPG [Av3bM170] | at least 16 days | at least 14 days
3 | KSCCPCYWGGCPWGQNCYPEGCSGPG (M103; VARIANT (1)..(26) Recombinant variant of Anemonia viridis Av3 peptide) [Av3bM103] | at least 16 days | 
4 | KSCCPCYWGGCPWGQNCYPEGCSGPK [Av3b, reference compound] |  | at least 14 days
5 | KSCCPCYWGGCPWGQNCYPEGCSGPKVG [Av3bM165] | at least 16 days | at least 14 days
